Source: the supplement of paper PMC10849652
The other results are listed elsewhere or left out.

Amino acid sequences for entries named in this document (tags omitted). A change or cut given only in a name is not applied to a line headed by its entry.
UniProt Q5JTV8: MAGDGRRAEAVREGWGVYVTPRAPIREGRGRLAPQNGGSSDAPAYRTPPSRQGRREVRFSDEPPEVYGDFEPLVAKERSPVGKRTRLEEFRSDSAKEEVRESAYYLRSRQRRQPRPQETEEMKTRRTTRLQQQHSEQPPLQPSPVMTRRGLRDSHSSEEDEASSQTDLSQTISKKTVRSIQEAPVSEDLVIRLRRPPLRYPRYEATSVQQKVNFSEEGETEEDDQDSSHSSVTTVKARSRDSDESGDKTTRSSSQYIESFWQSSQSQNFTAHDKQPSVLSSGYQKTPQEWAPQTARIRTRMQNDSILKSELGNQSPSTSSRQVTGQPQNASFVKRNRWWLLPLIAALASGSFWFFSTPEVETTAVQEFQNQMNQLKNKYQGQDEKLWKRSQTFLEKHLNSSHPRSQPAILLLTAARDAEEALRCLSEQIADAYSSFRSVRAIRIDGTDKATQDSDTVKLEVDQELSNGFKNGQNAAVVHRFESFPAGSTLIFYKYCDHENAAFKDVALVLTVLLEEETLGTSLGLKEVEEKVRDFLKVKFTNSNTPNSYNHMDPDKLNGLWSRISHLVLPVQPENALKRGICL
UniProt P13693: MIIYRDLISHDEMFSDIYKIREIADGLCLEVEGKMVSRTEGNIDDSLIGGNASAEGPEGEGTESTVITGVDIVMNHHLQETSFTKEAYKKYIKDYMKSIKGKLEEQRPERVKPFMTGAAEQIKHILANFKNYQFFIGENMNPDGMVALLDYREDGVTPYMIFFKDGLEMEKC
UniProt Q15645: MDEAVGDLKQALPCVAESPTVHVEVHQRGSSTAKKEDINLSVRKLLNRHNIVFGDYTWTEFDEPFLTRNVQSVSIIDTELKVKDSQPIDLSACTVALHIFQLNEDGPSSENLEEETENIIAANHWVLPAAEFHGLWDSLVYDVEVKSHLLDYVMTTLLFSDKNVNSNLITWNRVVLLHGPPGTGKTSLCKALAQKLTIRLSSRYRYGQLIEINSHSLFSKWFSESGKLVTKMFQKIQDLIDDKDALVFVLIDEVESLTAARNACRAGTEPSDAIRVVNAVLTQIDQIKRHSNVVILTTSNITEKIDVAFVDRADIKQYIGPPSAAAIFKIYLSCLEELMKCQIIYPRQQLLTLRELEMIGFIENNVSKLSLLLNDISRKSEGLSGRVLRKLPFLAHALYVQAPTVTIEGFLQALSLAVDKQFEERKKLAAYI
UniProt Q9NXH8: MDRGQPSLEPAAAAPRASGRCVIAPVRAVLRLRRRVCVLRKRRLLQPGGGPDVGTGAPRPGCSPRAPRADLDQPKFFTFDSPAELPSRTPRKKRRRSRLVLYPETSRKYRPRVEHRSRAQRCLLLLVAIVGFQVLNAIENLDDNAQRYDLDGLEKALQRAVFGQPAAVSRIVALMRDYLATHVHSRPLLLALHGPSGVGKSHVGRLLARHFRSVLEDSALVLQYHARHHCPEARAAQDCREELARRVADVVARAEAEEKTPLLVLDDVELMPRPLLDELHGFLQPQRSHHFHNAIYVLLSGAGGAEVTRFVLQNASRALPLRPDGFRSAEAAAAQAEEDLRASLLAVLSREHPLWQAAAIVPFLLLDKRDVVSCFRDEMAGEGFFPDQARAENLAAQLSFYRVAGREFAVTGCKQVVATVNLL
UniProt Q15388, whole entry, looked up: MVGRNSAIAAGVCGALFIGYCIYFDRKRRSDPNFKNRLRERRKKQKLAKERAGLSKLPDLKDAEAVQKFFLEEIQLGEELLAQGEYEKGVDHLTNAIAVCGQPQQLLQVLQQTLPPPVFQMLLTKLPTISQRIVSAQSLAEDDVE
UniProt Q9Y5S1: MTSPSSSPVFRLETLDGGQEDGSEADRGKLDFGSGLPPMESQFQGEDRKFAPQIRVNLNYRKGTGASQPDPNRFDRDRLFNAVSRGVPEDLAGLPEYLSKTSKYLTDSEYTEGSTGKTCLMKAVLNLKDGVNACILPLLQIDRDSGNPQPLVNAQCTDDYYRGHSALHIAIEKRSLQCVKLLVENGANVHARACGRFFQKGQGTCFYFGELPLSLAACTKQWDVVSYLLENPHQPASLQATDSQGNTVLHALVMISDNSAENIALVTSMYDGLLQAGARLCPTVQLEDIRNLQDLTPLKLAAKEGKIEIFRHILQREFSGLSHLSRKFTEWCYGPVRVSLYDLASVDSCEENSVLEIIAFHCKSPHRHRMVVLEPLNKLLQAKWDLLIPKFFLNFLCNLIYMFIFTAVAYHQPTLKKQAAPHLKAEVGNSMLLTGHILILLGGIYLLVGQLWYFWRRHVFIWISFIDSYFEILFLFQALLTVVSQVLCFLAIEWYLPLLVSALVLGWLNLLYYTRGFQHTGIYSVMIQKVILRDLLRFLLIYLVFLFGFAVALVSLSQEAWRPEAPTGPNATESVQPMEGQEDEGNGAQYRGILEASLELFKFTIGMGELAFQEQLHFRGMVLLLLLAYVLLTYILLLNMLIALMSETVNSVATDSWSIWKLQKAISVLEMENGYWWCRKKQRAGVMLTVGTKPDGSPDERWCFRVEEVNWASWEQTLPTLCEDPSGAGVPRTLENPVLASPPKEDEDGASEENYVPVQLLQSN
UniProt Q9NXH9: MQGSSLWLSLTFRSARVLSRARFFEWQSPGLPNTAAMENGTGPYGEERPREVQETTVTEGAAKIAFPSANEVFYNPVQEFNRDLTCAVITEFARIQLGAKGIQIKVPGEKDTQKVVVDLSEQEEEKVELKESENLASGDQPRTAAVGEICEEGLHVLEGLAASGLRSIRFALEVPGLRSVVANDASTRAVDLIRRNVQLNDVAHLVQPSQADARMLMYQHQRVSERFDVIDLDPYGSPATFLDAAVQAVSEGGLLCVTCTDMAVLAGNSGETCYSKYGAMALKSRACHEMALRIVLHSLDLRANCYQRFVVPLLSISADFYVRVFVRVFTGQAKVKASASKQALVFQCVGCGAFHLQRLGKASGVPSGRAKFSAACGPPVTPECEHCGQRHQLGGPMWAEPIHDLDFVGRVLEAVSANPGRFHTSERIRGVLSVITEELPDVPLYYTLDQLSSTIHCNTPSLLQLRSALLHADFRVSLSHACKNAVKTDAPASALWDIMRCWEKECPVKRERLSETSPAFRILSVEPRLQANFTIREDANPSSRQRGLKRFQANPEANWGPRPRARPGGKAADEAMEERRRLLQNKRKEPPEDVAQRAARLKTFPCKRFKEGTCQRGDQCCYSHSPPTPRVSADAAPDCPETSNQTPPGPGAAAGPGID
UniProt P11387: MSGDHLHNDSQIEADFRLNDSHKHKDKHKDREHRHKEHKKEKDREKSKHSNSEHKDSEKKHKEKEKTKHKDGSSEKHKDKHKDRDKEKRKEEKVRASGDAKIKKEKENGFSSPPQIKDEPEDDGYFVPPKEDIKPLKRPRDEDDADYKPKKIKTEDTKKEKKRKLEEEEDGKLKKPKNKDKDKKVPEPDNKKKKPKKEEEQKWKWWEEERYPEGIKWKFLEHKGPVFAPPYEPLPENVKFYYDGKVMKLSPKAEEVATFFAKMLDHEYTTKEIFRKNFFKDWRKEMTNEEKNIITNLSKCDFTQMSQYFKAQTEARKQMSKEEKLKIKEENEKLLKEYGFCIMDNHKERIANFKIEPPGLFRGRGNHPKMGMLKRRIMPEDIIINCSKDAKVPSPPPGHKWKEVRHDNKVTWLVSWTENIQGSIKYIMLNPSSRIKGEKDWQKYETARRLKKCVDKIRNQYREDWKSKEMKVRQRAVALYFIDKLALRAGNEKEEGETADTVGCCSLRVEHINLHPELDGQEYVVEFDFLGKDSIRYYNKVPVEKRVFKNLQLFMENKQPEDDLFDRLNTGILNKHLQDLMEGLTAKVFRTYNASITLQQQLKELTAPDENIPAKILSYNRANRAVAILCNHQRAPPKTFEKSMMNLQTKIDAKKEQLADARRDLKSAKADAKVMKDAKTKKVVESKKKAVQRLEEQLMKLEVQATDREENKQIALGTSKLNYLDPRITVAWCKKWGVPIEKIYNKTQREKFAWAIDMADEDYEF
UniProt Q7Z392: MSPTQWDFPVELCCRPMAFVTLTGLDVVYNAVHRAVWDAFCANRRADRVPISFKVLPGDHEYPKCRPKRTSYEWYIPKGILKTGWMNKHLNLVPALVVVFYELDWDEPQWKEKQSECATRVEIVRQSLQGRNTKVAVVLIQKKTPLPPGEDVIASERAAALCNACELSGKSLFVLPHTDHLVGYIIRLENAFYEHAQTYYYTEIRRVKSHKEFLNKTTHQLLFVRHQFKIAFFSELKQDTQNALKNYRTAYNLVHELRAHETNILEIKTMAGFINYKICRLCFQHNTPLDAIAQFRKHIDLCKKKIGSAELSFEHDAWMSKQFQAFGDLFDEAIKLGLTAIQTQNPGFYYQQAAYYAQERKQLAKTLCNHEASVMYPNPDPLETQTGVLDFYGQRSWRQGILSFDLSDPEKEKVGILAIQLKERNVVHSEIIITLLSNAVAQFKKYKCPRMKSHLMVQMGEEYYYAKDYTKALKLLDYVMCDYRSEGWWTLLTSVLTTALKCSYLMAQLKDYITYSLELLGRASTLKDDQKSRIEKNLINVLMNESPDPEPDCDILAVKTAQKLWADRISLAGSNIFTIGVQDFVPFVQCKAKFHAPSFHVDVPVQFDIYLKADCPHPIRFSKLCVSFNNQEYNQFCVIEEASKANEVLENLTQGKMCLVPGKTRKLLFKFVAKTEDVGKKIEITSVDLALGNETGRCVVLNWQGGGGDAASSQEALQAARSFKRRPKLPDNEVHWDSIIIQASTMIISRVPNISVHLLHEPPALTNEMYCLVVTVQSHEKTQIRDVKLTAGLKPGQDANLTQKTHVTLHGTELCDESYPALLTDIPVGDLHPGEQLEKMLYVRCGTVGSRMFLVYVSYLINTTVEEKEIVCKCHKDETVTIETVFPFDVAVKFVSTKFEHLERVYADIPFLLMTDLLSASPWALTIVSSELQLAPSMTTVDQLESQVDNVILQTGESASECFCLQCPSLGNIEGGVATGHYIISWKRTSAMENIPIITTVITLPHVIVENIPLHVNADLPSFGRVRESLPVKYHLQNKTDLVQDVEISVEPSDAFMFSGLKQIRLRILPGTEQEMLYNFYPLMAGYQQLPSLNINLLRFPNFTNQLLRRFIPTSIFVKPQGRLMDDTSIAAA
UniProt P51580: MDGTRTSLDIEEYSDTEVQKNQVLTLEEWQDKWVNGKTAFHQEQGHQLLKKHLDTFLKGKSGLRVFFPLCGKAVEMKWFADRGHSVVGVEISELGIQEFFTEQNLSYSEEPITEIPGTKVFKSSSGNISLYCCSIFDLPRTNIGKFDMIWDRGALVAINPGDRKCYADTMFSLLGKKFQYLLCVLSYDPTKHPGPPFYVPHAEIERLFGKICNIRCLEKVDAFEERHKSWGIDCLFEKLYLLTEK
UniProt Q12933: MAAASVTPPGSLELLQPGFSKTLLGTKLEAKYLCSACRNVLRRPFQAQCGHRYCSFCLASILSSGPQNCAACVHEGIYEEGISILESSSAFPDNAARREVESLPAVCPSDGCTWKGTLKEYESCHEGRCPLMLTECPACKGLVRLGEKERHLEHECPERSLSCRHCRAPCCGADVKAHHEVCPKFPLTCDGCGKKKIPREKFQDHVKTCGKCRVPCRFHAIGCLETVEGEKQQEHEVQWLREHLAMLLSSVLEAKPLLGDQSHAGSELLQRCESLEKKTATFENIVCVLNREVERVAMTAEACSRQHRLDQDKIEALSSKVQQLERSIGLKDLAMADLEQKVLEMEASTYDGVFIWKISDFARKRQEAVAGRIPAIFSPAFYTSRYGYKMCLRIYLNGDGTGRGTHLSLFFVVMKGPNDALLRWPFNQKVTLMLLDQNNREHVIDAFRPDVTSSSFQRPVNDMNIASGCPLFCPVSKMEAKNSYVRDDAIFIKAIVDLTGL
UniProt Q8WVT3: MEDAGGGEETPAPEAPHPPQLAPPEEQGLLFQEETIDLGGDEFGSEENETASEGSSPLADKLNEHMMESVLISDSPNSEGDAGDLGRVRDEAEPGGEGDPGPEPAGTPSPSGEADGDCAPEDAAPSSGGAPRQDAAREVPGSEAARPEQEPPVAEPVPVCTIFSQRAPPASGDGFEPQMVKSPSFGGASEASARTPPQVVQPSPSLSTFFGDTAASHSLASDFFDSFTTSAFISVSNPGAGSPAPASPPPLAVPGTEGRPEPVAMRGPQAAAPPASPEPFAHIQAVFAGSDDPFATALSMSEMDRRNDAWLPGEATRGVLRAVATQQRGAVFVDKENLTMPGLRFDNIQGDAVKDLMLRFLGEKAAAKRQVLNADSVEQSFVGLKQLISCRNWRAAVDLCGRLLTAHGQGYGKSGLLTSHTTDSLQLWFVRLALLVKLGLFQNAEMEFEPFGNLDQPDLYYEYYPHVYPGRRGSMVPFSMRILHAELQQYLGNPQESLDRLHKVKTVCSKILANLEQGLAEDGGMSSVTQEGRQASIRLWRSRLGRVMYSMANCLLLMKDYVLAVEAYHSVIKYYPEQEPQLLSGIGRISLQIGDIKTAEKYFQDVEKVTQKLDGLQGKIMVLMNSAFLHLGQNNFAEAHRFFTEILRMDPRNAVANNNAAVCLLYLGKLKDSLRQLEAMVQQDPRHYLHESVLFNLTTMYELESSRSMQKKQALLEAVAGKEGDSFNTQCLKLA

Compound: Cc1sc2c(c1C)C(c1ccc(Cl)cc1)=N[C@@H](CC(=O)OC(C)(C)C)c1nnc(C)n1-2
Assay: log2 fold change, soluble protein after heating vs DMSO (PISA); higher = thermal stabilisation; K562 cells, 10 uM, 30 min; active = over 0.2 and 3.5 SD of the protein, either way, in both replicates (recomputed)
Outline: (§1)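 Quantification of soluble protein used TMTpro 16plex LC-MS/MS, with channel sums equalised. Samples were the supernatant after 21,000xg for 90 min of pooled aliquots from K562 cells (2×10^6 cells/mL) treated with 10 μM compound for 30 min, heated for 3 min over 48°C-58°C, and extracted in PBS with 0.5% NP-40 at 4°C. Values, from duplicates, describe thermal stability against control samples on a log2 fold-change scale.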

Target	log2 fold change
TOR1AIP1 isoform 3 (UniProt Q5JTV8)	inactive: -0.015
TSC22D1 (UniProt Q15714)	inactive: -0.011
TPT1 (UniProt P13693)	inactive: -0.018
TRIP13 (UniProt Q15645)	inactive: -0.009
TP53BP2 isoform 3 (UniProt Q13625)	inactive: -0.09
TP53I3 (UniProt Q53FA7)	inactive: 0.017
TNIK isoform 3 (UniProt Q9UKE5)	inactive: -0.021
TSC22D2 (UniProt O75157)	inactive: -0.01
TRAPPC4 (UniProt Q9Y296)	inactive: 0.04
TOR4A (UniProt Q9NXH8)	inactive: 0.019
TOMM20 (UniProt Q15388)	inactive: 0.006
TRNT1 (UniProt Q96Q11)	inactive: -0.019
TRMT2A (UniProt Q8IZ69)	inactive: 0.1
TRUB1 (UniProt Q8WWH5)	inactive: -0.048
TRMT112 (UniProt Q9UI30)	inactive: -0.052
TRPV2 (UniProt Q9Y5S1)	inactive: -0.048
TRIP4 (UniProt Q15650)	inactive: 0.088

Target	log2 fold change
TRAP1 (UniProt Q12931)	inactive: -0.037
TRMT1 (UniProt Q9NXH9)	inactive: -0.03
TRIM44 (UniProt Q96DX7)	inactive: -0.006
TOP1 (UniProt P11387)	inactive: 0.116
TPM1 (UniProt H7BYY1)	inactive: 0.008
TOMM22 (UniProt Q9NS69)	inactive: -0.054
TRAPPC1 (UniProt Q9Y5R8)	inactive: -0.032
TRAPPC11 (UniProt Q7Z392)	inactive: -0.031
TPP2 (UniProt Q5VZU9)	inactive: -0.579
TPM4, A0A2R8Y5V9	inactive: -0.006
TOP3B (UniProt O95985)	inactive: 0.074
TPMT (UniProt P51580)	inactive: -0.02
TRPM7 (UniProt Q96QT4)	inactive: 0.047
TRAF2 (UniProt Q12933)	inactive: -0.023
TRAPPC12 (UniProt Q8WVT3)	inactive: 0.046
TPP2 (UniProt P29144)	inactive: -0.1

Compound: c1ccc([C@@H]2C[C@H]2NC2CCNCC2)cc1
Assay: as above
Outline: as §1

Target	log2 fold change
TOR1AIP1 isoform 3 (UniProt Q5JTV8)	inactive: 0.015
TSC22D1 (UniProt Q15714)	inactive: 0.099
TPT1 (UniProt P13693)	inactive: -0.027
TRIP13 (UniProt Q15645)	inactive: -0.022
TP53BP2 isoform 3 (UniProt Q13625)	inactive: -0.035
TP53I3 (UniProt Q53FA7)	inactive: 0.053
TNIK isoform 3 (UniProt Q9UKE5)	inactive: -0.02
TSC22D2 (UniProt O75157)	inactive: 0.071
TRAPPC4 (UniProt Q9Y296)	inactive: 0.023
TOR4A (UniProt Q9NXH8)	inactive: -0.051
TOMM20 (UniProt Q15388)	inactive: 0.008
TRNT1 (UniProt Q96Q11)	inactive: 0.021
TRMT2A (UniProt Q8IZ69)	inactive: 0.058
TRUB1 (UniProt Q8WWH5)	inactive: 0.009
TRMT112 (UniProt Q9UI30)	inactive: 0.004
TRPV2 (UniProt Q9Y5S1)	inactive: 0.02
TRIP4 (UniProt Q15650)	inactive: -0.013

Target	log2 fold change
TRAP1 (UniProt Q12931)	inactive: 0.017
TRMT1 (UniProt Q9NXH9)	inactive: 0.055
TRIM44 (UniProt Q96DX7)	inactive: 0.012
TOP1 (UniProt P11387)	inactive: 0.037
TPM1 (UniProt H7BYY1)	inactive: 0.058
TOMM22 (UniProt Q9NS69)	inactive: 0.009
TRAPPC1 (UniProt Q9Y5R8)	inactive: -0.046
TRAPPC11 (UniProt Q7Z392)	inactive: 0.027
TPP2 (UniProt Q5VZU9)	inactive: -0.021
TPM4, A0A2R8Y5V9	inactive: 0.025
TOP3B (UniProt O95985)	inactive: -0.019
TPMT (UniProt P51580)	inactive: -0.015
TRPM7 (UniProt Q96QT4)	inactive: 0.151
TRAF2 (UniProt Q12933)	inactive: 0.019
TRAPPC12 (UniProt Q8WVT3)	inactive: -0.005
TPP2 (UniProt P29144)	inactive: -0.001
